In patent publication US20150258043A1, “USE OF SPHINGOID LONG CHAIN BASES AND THEIR ANALOGS IN TREATING AND PREVENTING BACTERIAL INFECTIONS” (YEDA RESEARCH AND DEVELOPMENT CO. LTD., priority 2012, published 2015):
Some results were stated once for a whole list of compounds, not compound by compound. Some compounds share one range, which may span the group rather than tell each member.

Tested on: P. aeruginosa strain 762
Assay: Effect of LCBs on P. aeruginosa growth in vitro (colony counts)
Type: cell-based, Pseudomonas aeruginosa
Settings: classes by EC50
Protocol: P. aeruginosa strain 762 or ATCC 27853 were grown in LB medium at 37° C. until the early logarithmic phase (OD550 0.2). Bacteria were then diluted in PBS to a concentration of 5×10^3 CFU/ml. Stock solutions of sphingolipids (5 mM in 7.5% n-Octyl-β-D-Glucopyranoside (OGP) or in DMSO were prepared by sonication. Sphingolipids were added to the bacteria (0.1-50 μM in 0.075% OGP or 1% DMSO). Bacteria were incubated with sphingolipids for 2 hr at 37° C. and a sample of 200 μl bacteria solution were plated on LB agar plates, incubated overnight at 37° C. and colonies were counted.
The direct effect of sphingosine and other sphingoid long chain bases (LCBs) on the growth of P. aeruginosa was examined in vitro. Bacteria were incubated with a variety of LCBs and the EC50 values on bacterial growth were determined (Table 1).

| Compound | category as bacterial growth inhibitor |
| --- | --- |
| CCCCCCCCCCCCCCC[C@H](O)[C@@H](C)N [1-deoxy-D-erythro-dihydrosphingosine] | strong inhibitors (strong inhibitors (EC50 of 0.5-1 μM)) |
| CCCCCCCCCCCCC/C=C/[C@@H](O)CN [1-desoxymethyl sphingosine, 1-desoxymethylsphingosine] | strong inhibitors (strong inhibitors (EC50 of 0.5-1 μM)) |
